Measurements reported in PubChem BioAssay AID445 (National Center for Advancing Translational Sciences (NCATS), 2006).
Some of the results follow. Shown are side measurements of this screen, not its main read-out; they come without a call. Compounds called inactive in the main read-out are mostly missing here. Potencies come from curve fits of mixed quality, noted in brackets.

Experiment: IkB Signaling
Details: ABC-DLBCL IkBa-CBG/CBR dual luciferase ratio (green luciferase fused to IkBa over red control in OCI-Ly3 lymphoma cells), 4 h
In short: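 Luminescence ratio of IκBα-fused green versus native red beetle luciferase in OCI-Ly3 cells, 4 h post-doxycycline with compound; red signal alone, scaled from basal (0%) to zero light (-100%), flagged nonspecific or cytotoxic effects.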

[1] = measured here: control luc red channel unless noted

CCn1c(SCc2cccc(C(F)(F)F)c2)nnc1-c1ccco1
AC50 [1]: 7.94 µM [falling, partial curve]

O=C(CC1C(=O)N(c2ccccc2)C(=O)N1CCc1cccs1)Nc1ccc(F)cc1 (configuration not stated)
AC50 [1]: 39.8 µM [falling, single point]

O=C(NCCN1CCN(c2cccc(Cl)c2)CC1)Nc1ccccc1C(F)(F)F
AC50 [1]: 12.6 µM [falling, partial curve]

Cc1ccc(CNc2nc(-c3ccco3)nn2S(=O)(=O)c2ccc3ccccc3c2)cc1
AC50 [1]: 10 µM [falling, partial curve]

O=C(CSc1ncc(-c2ccccc2)[nH]1)Nc1ccc(Cl)cc1
AC50 [1]: 12.6 µM [falling, partial curve]

Cc1ccc(S(=O)(=O)Nc2cc3c(cc2NCc2ccccc2)n(C)c(=O)n3C)cc1
AC50 [1]: 25.1 µM [falling, single point]

O=C(Cn1c(=O)nc(-c2ccccc2)c2cc(Cl)ccc21)N1CCN(c2ccccc2F)CC1
AC50 [1]: 15.8 µM [falling, partial curve, poor fit]

Cc1c(C(=O)OCC(=O)c2ccc3c(c2)OCCO3)oc2ccccc12
AC50 [1]: 25.1 µM [falling, single point]

CCOC(=O)c1sc2ccccc2c1S(=O)(=O)N1CCN(c2cccc(C)c2)C(C)C1 (configuration not stated)
AC50 [1]: 0.316 µM [falling, full curve, poor fit]

Cc1ccccc1CNC(=O)c1oc2c(c1C)-c1[nH]ncc1CC2
AC50 [1]: 3.98 µM [falling, full curve]

Cc1ccc2nc(Cl)c3cc(C(=O)N4CCCCC4C)sc3c2c1 (configuration not stated)
AC50 [1]: 39.8 µM [falling, single point]

Cc1ccccc1Nc1nn2c(=O)c3ccc(C(=O)NCCc4ccc(Cl)cc4)cc3nc2s1
AC50 [1]: 7.94 µM [falling, partial curve]

COc1ccc(Cl)cc1NC(=O)CN1C(=O)C(C)(C)c2cc(S(=O)(=O)N3CCCCC3)ccc21
AC50 [1]: 10 µM [falling, partial curve]

CC(C)C1C(=O)Nc2ccc(S(=O)(=O)NCCc3ccc(Cl)cc3)cc21 (configuration not stated)
AC50 [1]: 31.6 µM [falling, partial curve]

Cc1cccc(-n2ncc(C(=O)N3CCN(c4ccc(C)cc4C)CC3)c2C2CCN(C(=O)OC(C)(C)C)CC2)c1
AC50 [1]: 15.8 µM [falling, partial curve]

Cc1ccsc1CN(C(=O)c1oc2ccc(Br)cc2c1C)C1CCS(=O)(=O)C1 (configuration not stated)
AC50 [1]: 15.8 µM [falling, partial curve]

Cc1ccc(Cl)cc1N1CCN(C(=O)c2c(C)oc3ncnc(N4CCCCC4)c23)CC1
AC50 [1]: 39.8 µM [falling, single point]

CCCCOc1cccc(C(=O)Nc2cc(NC(=O)c3ccco3)ccc2OC)c1
AC50 [1]: 31.6 µM [falling, single point]

CCc1cc(C(=O)Nc2sc(C)c(CC)c2C#N)no1
AC50 [1]: 0.00631 µM [rising, full curve, poor fit]

CC(c1ccccc1)n1cc2c(c1-c1ccccc1Br)c(=O)n(C)c(=O)n2C (configuration not stated)
AC50 [1]: 15.8 µM [falling, partial curve]

Cc1ccc(CNC(=O)c2c(O)nc3cc(C)ccn3c2=O)cc1
AC50 [1]: 31.6 µM [falling, single point]

COc1cccc(NC(=O)CCc2c(C)nc3nc(CNC(=O)c4cccc(F)c4)nn3c2C)c1
AC50 [1]: 31.6 µM [falling, single point]

Cc1oc2ccc(O)c(CN3CCCC3)c2c1C(=O)Nc1ccc(C(C)C)cc1
AC50 [1]: 31.6 µM [falling, single point]

CCCn1c(CNc2ccc(Br)cc2)nc2ccccc21
AC50 (measured here: IkB-luc green channel): 15.8 µM [falling, partial curve]
AC50 (measured here: control luc red channel): 6.31 µM [falling, partial curve]

C#CCOc1ccc(-c2nnc(Nc3ccc(NC(C)=O)cc3)c3ccccc23)cc1
AC50 [1]: 25.1 µM [falling, single point]

CN1C(=O)c2cccc3c(S(=O)(=O)NCc4ccco4)ccc1c23
AC50 [1]: 10 µM [rising, partial curve] [measured here: IkB-luc green channel]

O=C(Nc1ccc(Cc2ccc(NC(=O)C3CC3)c(O)c2)cc1O)C1CC1
AC50 [1]: 12.6 µM [falling, partial curve]

CC(C)COc1ccc(C(=O)N2CCCCC2CCN2CCCCC2)cc1 (configuration not stated)
AC50 [1]: 39.8 µM [falling, single point]

COc1ccc(CCNC(=O)c2cnn(-c3cccc(C)c3)c2C2CCN(C(=O)OC(C)(C)C)CC2)cc1OC
AC50 [1]: 39.8 µM [falling, single point]

Cc1cccc(-c2nnn3c2nc(NCc2ccc4c(c2)OCO4)c2ccccc23)c1
AC50 [1]: 1.58 µM [falling, full curve]

COc1ccccc1C1C(C(=O)c2sc(C)nc2C)=C(O)C(=O)N1CCN1CCOCC1 (configuration not stated)
AC50 [1]: 15.8 µM [falling, partial curve]

COC(=O)c1c(NC(=O)c2nc3ccccc3s2)sc2c1CCN(C(C)=O)C2
AC50 [1]: 6.31 µM [falling, partial curve]

COc1ccc(-n2c(SCC(=O)N3CCc4ccccc43)nc3c([nH]c4ccccc43)c2=O)cc1
AC50 [1]: 0.316 µM [rising, partial curve]

CCOC(=O)C1CCCN(C(=O)Cn2ncc3c(C)n(Cc4ccccc4Cl)c(C)c3c2=O)C1 (configuration not stated)
AC50 [1]: 12.6 µM [falling, partial curve]

CCCc1nc2ccccc2n1CC(O)COc1ccc(C(=O)OC)cc1 (configuration not stated)
AC50 [1]: 31.6 µM [falling, single point]

O=C(Nc1ccc(Cl)cc1F)c1cnc2sc(N3CCOCC3)nn2c1=O
AC50 [1]: 3.98 µM [rising, full curve]

CCC1CCCCN1S(=O)(=O)c1ccc(C(=O)Nc2sc3c(c2C(N)=O)CCC3)cc1 (configuration not stated)
AC50 [1]: 25.1 µM [falling, partial curve]

CC(C)(C)OC(=O)N1CCC(c2c(C(=O)N3CCN(c4ccccn4)CC3)cnn2-c2ccccc2)CC1
AC50 [1]: 25.1 µM [falling, single point]

COc1ccc(-c2nc(C)c(CCNC(=O)c3cccs3)s2)cc1OC
AC50 [1]: 0.794 µM [rising, partial curve]

Cc1ccc(OCC(=O)NCC2(N(C)C)CCCCC2)cc1C
AC50 [1]: 31.6 µM [falling, single point]

COc1ccccc1N1CCN(CC(=O)Nc2ccc(C)c(F)c2)CC1
AC50 [1]: 12.6 µM [falling, partial curve]

CCCOc1ccc(C(=O)NCC2OCCc3ccccc32)cc1 (configuration not stated)
AC50 [1]: 31.6 µM [falling, single point]

Cc1ccc(CNc2oc(-c3ccc(COc4ccc(C)cc4)o3)nc2C#N)cc1
AC50 [1]: 0.0501 µM [falling, full curve]

Cc1ccc(NC(=O)c2c(C)nc3sc(C(=O)Nc4ccc(F)cc4)c(N)c3c2-c2ccc(C)o2)c(C)c1
AC50 [1]: 5.01 µM [falling, partial curve]

Cc1ccc2c(c1)-c1c(cnn1CC(=O)N1CCN(c3ccccc3F)CC1)CO2
AC50 [1]: 25.1 µM [falling, single point]

Cc1oc2ncn(CC(C)C)c(=O)c2c1C(=O)NCCc1ccccc1
AC50 [1]: 31.6 µM [falling, partial curve, poor fit]

Cc1ccc(-c2nc(CNC(=O)Nc3ccccc3)c(C)o2)cc1
AC50 [1]: 10 µM [falling, partial curve]

c1ccc(Cn2c(SCc3nc4ccccc4s3)nnc2-c2ccco2)cc1
AC50 [1]: 15.8 µM [falling, partial curve]

CCN(CC)C(=O)CSc1nc2ccsc2c(=O)n1Cc1ccccc1Cl
AC50 [1]: 6.31 µM [falling, partial curve]

CCS(=O)(=O)n1nc(NCc2cccc(OC)c2)nc1NCc1cccc(OC)c1
AC50 [1]: 39.8 µM [falling, single point]

Cc1cc(C)n2c(Nc3ccc(C(C)C)cc3)c(-c3ccsc3)nc2n1
AC50 [1]: 12.6 µM [falling, partial curve]

COCCNC(=O)Cn1c(=O)n(CCCCCC(=O)NCc2ccccc2Cl)c(=O)c2sccc21
AC50 [1]: 10 µM [falling, partial curve]

Cc1cccc(Cn2c(SCc3ccc(C(=O)NCc4ccccc4F)cc3)nc3ccncc32)c1
AC50 [1]: 20 µM [falling, partial curve]

Cc1cc(N2CCN(S(=O)(=O)c3ccc(Cl)cc3)CC2)c2ccccc2n1
AC50 [1]: 3.16 µM [falling, full curve]

Cc1c(-c2cccc(NC(=O)Nc3ccc(Cl)cc3)c2)nc2ncccn12
AC50 [1]: 25.1 µM [falling, partial curve]

CC1CCCCN1C(=O)Cn1ncc2c3ccccc3n(Cc3ccccc3F)c2c1=O (configuration not stated)
AC50 [1]: 15.8 µM [falling, partial curve]

COc1ccc(CN(C(=O)c2cc3ccccc3oc2=O)C2CCS(=O)(=O)C2)cc1OC (configuration not stated)
AC50 [1]: 20 µM [falling, partial curve, poor fit]

Cc1ccc(C(=O)COC(=O)C(Cc2c[nH]c3ccccc23)NC(=O)c2ccc(C(C)(C)C)cc2)cc1 (configuration not stated)
AC50 [1]: 0.794 µM [falling, full curve, poor fit]

CCOC(=O)C(C)Sc1nc(-c2ccccc2Cl)cc(-c2ccccc2)c1C#N (configuration not stated)
AC50 [1]: 0.631 µM [rising, full curve, poor fit]

Cc1cc(C)cc(NC(=O)CSc2nc(=O)n(Cc3ccccn3)c3c2CCC3)c1
AC50 [1]: 15.8 µM [falling, partial curve]

Cc1cccc(Oc2nc3c(c(=O)n(C)c(=O)n3C)n2Cc2ccccc2)c1C
AC50 [1]: 15.8 µM [falling, partial curve]
